According to PMC6377711:
No constants are given. Whether binding was seen depends on the method and setting. In cells and extracts the contact can be indirect. A result given as binding can be weak or reduced; the word gives no strength. One block for each molecule: values may come before it.

Sequences of proteins named here, by UniProt entry; tags and fusion partners are left off.
UniProt Q676U5: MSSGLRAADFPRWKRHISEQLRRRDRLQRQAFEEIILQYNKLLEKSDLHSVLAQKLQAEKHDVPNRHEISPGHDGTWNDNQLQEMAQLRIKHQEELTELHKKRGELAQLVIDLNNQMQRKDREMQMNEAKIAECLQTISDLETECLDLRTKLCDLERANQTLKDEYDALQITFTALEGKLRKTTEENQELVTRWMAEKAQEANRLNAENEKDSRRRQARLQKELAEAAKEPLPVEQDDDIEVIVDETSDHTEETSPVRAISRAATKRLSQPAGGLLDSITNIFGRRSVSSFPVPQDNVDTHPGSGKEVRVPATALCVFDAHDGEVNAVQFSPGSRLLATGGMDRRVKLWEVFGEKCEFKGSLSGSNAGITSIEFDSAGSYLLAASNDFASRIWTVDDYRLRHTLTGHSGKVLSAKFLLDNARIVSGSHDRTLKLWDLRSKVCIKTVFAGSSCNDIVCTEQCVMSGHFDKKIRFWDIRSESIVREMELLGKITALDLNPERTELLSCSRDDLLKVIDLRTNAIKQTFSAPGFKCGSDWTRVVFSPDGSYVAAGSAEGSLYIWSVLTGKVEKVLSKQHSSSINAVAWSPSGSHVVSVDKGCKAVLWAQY

Experiments:
[1] = biological target: Flag-Gigaxonin ΔC deletion construct (BTB) (human) (UniProt Q9H2C0); experiment: co-IP; COS-7 cells transiently transfected and treated with MG132; anti-Flag or anti-Cherry antibodies on Dynabeads Protein G incubated with 500 µg of lysate protein for 2 h at room temperature in PBS tween 0.02%; immunoblot with Cherry/Flag antibodies; normal mouse IgG as negative control
[2] = biological target: Flag-ATG16L1-ΔN (mouse deletion construct) (mouse); experiment: as above

binding [1]: binds
Molecule: Cherry-ATG16L1 (human) (from UniProt Q676U5 1-607)

binding [2]: binds
B1: Cherry-Gigaxonin (human, full-length) (protein, UniProt Q9H2C0 1-597)
chain: MAEGSAVSDPQHAARLLRALSSFREESRFCDAHLVLDGEEIPVQKNILAAASPYIRTKLNYNPPKDDGSTYKIELEGISVMVMREILDYIFSGQIRLNEDTIQDVVQAADLLLLTDLKTLCCEFLEGCIAAENCIGIRDFALHYCLHHVHYLATEYLETHFRDVSSTEEFLELSPQKLKEVISLEKLNVGNERYVFEAVIRWIAHDTEIRKVHMKDVMSALWVSGLDSSYLREQMLNEPLVREIVKECSNIPLSQPQQGEAMLANFKPRGYSECIVTVGGEERVSRKPTAAMRCMCPLYDPNRQLWIELAPLSMPRINHGVLSAEGFLFVFGGQDENKQTLSSGEKYDPDANTWTALPPMNEARHNFGIVEIDGMLYILGGEDGEKELISMECYDIYSKTWTKQPDLTMVRKIGCYAAMKKKIYAMGGGSYGKLFESVECYDPRTQQWTAICPLKERRFGAVACGVAMELYVFGGVRSREDAQGSEMVTCKSEFYHDEFKRWIYLNDQNLCIPASSSFVYGAVPIGASIYVIGDLDTGTNYDYVREFKRSTGTWHHTKPLLPSDLRRTGCAALRIANCKLFRLQLQQGLFRIRVHSP
